Experimental data: PubChem BioAssay AID1259425 (University of Nebraska Medical Center, 2018)
Here is an unselected part of about 14,000 reagents. No sequences are given here. The record does not give: the time to read-out.

- Screen: 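Compare each knockdown with KSR1 silencing using changes in marker transcripts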 (primary screen)
- Cells: HCT116 human colon cancer cells
- Reagents: siRNA pool against human genes, 50 nM siRNA
- Read-out: 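mRNA of six signature genes measured together by branched-DNA assay after 50 nM siRNA pool, blank removed, divided by geometric mean of two housekeeping genes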
- Scale: BNIP3L mRNA: higher = more BNIP3L transcript after knockdown; NDRG1 mRNA: higher = more NDRG1 transcript after knockdown; BNIP3 mRNA: higher = more BNIP3 transcript after knockdown; ALDOC mRNA: higher = more ALDOC transcript after knockdown; ACSL5 mRNA: higher = more ACSL5 transcript after knockdown

| gene | BNIP3L mRNA, set 1 | NDRG1 mRNA, set 1 | BNIP3 mRNA, set 1 | ALDOC mRNA, set 1 | ACSL5 mRNA, set 1 |
| --- | --- | --- | --- | --- | --- |
| NEFH (neurofilament heavy chain) | 0.161 | 0.399 | 0.326 | 0.03 | 0.258 |
| VWA5A (von Willebrand factor A domain containing 5A) | 0.0907 | 0.106 | 0.328 | -0.0048 | 0.147 |
| NHERF2 (NHERF family PDZ scaffold protein 2) | 0.192 | 0.372 | 0.352 | 0.0146 | 0.302 |
| CCDC121 (coiled-coil domain containing 121) | 0.0769 | 0.34 | 0.282 | 0.0354 | 0.273 |
| INHBC (inhibin subunit beta C) | 0.0801 | 0.236 | 0.286 | 0.0304 | 0.13 |
| SLC4A7 | 0.125 | 0.14 | 0.3 | 0.0308 | 0.144 |
| ARRDC1-AS1 (ARRDC1 antisense RNA 1) | 0.13 | 0.336 | 0.341 | 0.0294 | 0.305 |
| RAI14 (retinoic acid induced 14) | 0.236 | 0.231 | 0.572 | 0.0631 | 0.123 |
| ABHD3 (abhydrolase domain containing 3, phospholipase) | 0.103 | 0.159 | 0.231 | 0.00907 | 0.384 |
| HECTD1 (HECT domain E3 ubiquitin protein ligase 1) | 0.115 | 0.165 | 0.318 | 0.0343 | 0.158 |
| CCT2 (chaperonin containing TCP1 subunit 2) | 0.173 | 1.27 | 0.461 | 0.00864 | 0.488 |
| ATOH8 (atonal bHLH transcription factor 8) | 0.116 | 0.22 | 0.279 | 0.048 | 0.2 |
| NFKB2 (nuclear factor kappa B subunit 2) | 0.0941 | 0.277 | 0.393 | 0.0102 | 0.174 |
| EQTN (equatorin) | 0.157 | 0.274 | 0.242 | 0.0284 | 0.191 |
| RGP1 (RGP1 partner of RAB6A GEF complex) | 0.218 | 0.157 | 0.303 | 0.0403 | 0.252 |
| CCDC181 (coiled-coil domain containing 181) | 0.0726 | 0.135 | 0.26 | 0.0249 | 0.122 |
| CD274 (CD274 molecule) | 0.0717 | 0.331 | 0.231 | 0.00832 | 0.228 |
| RTP3 (receptor transporter protein 3) | 0.0817 | 0.048 | 0.271 | 0.0677 | 0.0736 |
| GOLGB1 (golgin B1) | 0.0906 | 0.162 | 0.245 | 0.00732 | 0.293 |
| ARHGEF5 (Rho guanine nucleotide exchange factor 5) | 0.172 | 0.117 | 0.313 | 0.0133 | 0.501 |
| FOLH1 (folate hydrolase 1) | 0.152 | 0.192 | 0.328 | 0.0112 | 0.279 |
| TACR2 (tachykinin receptor 2) | 0.182 | 0.356 | 0.42 | 0.213 | 0.227 |
| ERC2 (ELKS/RAB6-interacting/CAST family member 2) | 0.103 | 0.534 | 0.205 | 0.0104 | 0.21 |
| KLK13 (kallikrein related peptidase 13) | 0.0727 | 0.103 | 0.278 | 0.0343 | 0.121 |
| HOXB9 (homeobox B9) | 0.109 | 1.21 | 0.297 | 0.0282 | 0.172 |
| SLC6A1 | 0.139 | 0.277 | 0.111 | 0.0417 | 0.353 |
| IL23A (interleukin 23 subunit alpha) | 0.311 | 1.08 | 0.874 | 0.155 | 0.247 |
| RGSL1 (regulator of G protein signaling like 1) | 0.149 | 0.26 | 0.346 | 0.0595 | 0.24 |
| RASA2 (RAS p21 protein activator 2) | 0.0386 | 0.133 | 0.334 | 0.0425 | 0.13 |
| ZNF317 (zinc finger protein 317) | 0.153 | 0.339 | 0.406 | 0.0324 | 0.179 |
| OTX2 (orthodenticle homeobox 2) | 0.136 | 0.133 | 0.302 | 0.0426 | 0.099 |
| XAGE2 (X antigen family member 2) | 0.222 | 0.841 | 0.658 | 0.0343 | 0.352 |
| KRT18 (keratin 18) | 0.0931 | 0.142 | 0.381 | 0.0379 | 0.103 |
| LPAL2 (lipoprotein(a) like 2 (pseudogene)) | 0.0898 | 0.24 | 0.415 | 0.0279 | 0.181 |

A stretch of the results above:
| gene | BNIP3L mRNA, set 1 | NDRG1 mRNA, set 1 | BNIP3 mRNA, set 1 | ALDOC mRNA, set 1 | ACSL5 mRNA, set 1 |
| --- | --- | --- | --- | --- | --- |
| ZNF317 (zinc finger protein 317) | 0.153 | 0.339 | 0.406 | 0.0324 | 0.179 |
| OTX2 (orthodenticle homeobox 2) | 0.136 | 0.133 | 0.302 | 0.0426 | 0.099 |
| XAGE2 (X antigen family member 2) | 0.222 | 0.841 | 0.658 | 0.0343 | 0.352 |
| KRT18 (keratin 18) | 0.0931 | 0.142 | 0.381 | 0.0379 | 0.103 |
